Source: article PMC4632068
These are yes or no findings as the source states them, for the method shown. In cells and extracts the contact can be indirect. Some entries that bind do so weakly or less than the wild type. Sequences can lack the tags named with a protein.

The chains behind the UniProt entries cited, without tags or fusion partners.
UniProt P22147: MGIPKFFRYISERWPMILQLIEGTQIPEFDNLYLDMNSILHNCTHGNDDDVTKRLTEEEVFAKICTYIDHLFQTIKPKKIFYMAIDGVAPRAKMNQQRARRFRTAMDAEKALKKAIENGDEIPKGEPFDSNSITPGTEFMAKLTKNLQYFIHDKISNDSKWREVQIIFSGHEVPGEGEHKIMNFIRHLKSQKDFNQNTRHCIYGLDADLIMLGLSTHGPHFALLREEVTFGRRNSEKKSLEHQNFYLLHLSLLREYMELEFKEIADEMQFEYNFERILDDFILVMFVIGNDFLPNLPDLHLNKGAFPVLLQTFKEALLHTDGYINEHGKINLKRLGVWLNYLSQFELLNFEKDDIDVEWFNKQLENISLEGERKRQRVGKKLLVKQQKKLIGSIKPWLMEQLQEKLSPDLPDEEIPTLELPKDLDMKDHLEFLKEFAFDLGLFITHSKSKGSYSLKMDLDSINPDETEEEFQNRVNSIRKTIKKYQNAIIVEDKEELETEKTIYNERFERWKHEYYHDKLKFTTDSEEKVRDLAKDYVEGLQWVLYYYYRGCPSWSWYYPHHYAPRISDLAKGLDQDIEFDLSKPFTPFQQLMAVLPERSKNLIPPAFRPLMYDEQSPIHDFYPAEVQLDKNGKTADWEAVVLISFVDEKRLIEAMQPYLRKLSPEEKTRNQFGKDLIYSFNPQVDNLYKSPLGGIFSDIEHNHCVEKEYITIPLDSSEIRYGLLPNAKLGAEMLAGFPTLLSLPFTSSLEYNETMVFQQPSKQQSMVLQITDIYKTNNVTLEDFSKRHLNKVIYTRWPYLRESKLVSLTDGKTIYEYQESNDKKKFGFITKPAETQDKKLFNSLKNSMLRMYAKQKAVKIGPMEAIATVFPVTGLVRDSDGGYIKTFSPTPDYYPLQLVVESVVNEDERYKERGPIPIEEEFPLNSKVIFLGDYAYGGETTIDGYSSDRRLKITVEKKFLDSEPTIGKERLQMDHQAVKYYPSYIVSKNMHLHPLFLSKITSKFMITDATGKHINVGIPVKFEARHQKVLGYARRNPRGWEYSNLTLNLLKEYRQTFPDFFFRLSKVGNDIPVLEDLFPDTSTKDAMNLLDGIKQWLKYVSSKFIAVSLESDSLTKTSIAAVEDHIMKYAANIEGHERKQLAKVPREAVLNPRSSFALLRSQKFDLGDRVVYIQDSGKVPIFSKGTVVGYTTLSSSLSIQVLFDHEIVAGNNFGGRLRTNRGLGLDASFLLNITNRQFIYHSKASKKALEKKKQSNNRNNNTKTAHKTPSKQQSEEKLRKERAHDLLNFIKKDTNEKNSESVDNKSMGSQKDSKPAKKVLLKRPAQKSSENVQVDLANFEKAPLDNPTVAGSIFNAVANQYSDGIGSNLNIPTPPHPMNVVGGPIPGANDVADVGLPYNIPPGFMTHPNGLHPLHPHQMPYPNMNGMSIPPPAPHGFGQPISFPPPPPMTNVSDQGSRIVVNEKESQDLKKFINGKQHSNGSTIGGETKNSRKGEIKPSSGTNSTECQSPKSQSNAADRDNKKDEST

T1: Dhh1−GFP (S. cerevisiae (endogenous in BY4741-derived yeast)) (UniProt P39517)
T1 sequence: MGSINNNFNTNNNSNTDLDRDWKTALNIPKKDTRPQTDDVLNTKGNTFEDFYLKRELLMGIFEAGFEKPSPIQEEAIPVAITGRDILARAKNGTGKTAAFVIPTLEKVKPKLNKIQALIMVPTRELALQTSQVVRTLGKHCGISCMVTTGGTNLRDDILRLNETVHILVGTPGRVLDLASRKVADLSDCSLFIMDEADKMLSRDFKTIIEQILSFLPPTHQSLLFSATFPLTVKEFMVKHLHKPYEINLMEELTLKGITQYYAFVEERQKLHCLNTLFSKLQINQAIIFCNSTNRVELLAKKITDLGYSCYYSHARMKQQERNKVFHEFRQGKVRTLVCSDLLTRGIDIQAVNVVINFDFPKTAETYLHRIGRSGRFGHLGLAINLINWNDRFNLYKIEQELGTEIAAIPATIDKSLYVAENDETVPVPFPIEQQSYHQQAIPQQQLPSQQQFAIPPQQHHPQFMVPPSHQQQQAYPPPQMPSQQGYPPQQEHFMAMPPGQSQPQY

T2: Dhh1−GFP (S. cerevisiae (endogenous in BY4741-derived yeast)), P39517
T2 chain: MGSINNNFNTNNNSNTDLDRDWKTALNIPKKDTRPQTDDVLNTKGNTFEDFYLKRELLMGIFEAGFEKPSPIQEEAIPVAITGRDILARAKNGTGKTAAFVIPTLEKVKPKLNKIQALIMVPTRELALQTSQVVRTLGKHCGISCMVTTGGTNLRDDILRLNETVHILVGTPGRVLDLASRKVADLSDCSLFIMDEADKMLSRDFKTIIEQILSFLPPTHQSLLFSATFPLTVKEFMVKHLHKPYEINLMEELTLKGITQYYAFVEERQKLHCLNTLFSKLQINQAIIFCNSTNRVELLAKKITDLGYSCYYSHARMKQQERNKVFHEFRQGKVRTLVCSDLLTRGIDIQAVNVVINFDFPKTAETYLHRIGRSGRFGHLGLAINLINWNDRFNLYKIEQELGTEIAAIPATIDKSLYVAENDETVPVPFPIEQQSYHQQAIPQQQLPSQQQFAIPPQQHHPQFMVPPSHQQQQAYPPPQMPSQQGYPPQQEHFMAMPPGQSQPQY


Assays:
[1] = target: T1, Dhh1−GFP (S. cerevisiae (endogenous in BY4741-derived yeast)); assay: co-IP; Dhh1−GFP immunoisolated on anti-GFP Protein-G beads from yeast lysate (+glucose and −glucose); eluate on silver-stained SDS gel, bands assigned by apparent molecular weight and MS from other purifications; BY4741 as negative control
[2] = target: T2, Dhh1−GFP (S. cerevisiae (endogenous in …)); assay: as above; details: remark: other sources report otherwise

binding [1] | binding [2] | Molecule
binds |  | Xrn1 (from UniProt P22147 1-1528)
binds |  | Pat1 (protein, UniProt P25644 1-796) MSFFGLENSGNARDGPLDFEESYKGYGEHELEENDYLNDETFGDNVQVGTDFDFGNPHSSGSSGNAIGGNGVGATARSYVAATAEGISGPRTDGTAAAGPLDLKPMESLWSTAPPPAMAPSPQSTMAPAPAPQQMAPLQPILSMQDLERQQRQMQQQFMNFHAMGHPQGLPQGPPQQQFPMQPASGQPGPSQFAPPPPPPGVNVNMNQMPMGPVQVPVQASPSPIGMSNTPSPGPVVGATKMPLQSGRRSKRDLSPEEQRRLQIRHAKVEKILKYSGLMTPRDKDFITRYQLSQIVTEDPYNEDFYFQVYKIIQRGGITSESNKGLIARAYLEHSGHRLGGRYKRTDIALQRMQSQVEKAVTVAKERPSKLKDQQAAAGNSSQDNKQANTVLGKISSTLNSKNPRRQLQIPRQQPSDPDALKDVTDSLTNVDLASSGSSSTGSSAAAVASKQRRRSSYAFNNGNGATNLNKSGGKKFILELIETVYEEILDLEANLRNGQQTDSTAMWEALHIDDSSYDVNPFISMLSFDKGIKIMPRIFNFLDKQQKLKILQKIFNELSHLQIIILSSYKTTPKPTLTQLKKVDLFQMIILKIIVSFLSNNSNFIEIMGLLLQLIRNNNVSFLTTSKIGLNLITILISRAALIKQDSSRSNILSSPEISTWNEIYDKLFTSLESKIQLIFPPREYNDHIMRLQNDKFMDEAYIWQFLASLALSGKLNHQRIIIDEVRDEIFATINEAETLQKKEKELSVLPQRSQELDTELKSIIYNKEKLYQDLNLFLNVMGLVYRDGEISELK
binds |  | Edc3 (protein, UniProt P39998 1-551) MSQFVGFGVQVELKDGKLIQGKIAKATSKGLTLNDVQFGDGGKSQAFKVRASRLKDLKVLTVASQSGKRKQQRQQQQQNDYNQNRGEHIDWQDDDVSKIKQQEDFDFQRNLGMFNKKDVFAQLKQNDDILPENRLQGHNRKQTQLQQNNYQNDELVIPDAKKDSWNKISSRNEQSTHQSQPQQDAQDDLVLEDDEHEYDVDDIDDPKYLPITQSLNITHLIHSATNSPSINDKTKGTVINDKDQVLAKLGQMIISQSRSNSTSLPAANKQTTIRSKNTKQNIPMATPVQLLEMESITSEFFSINSAGLLENFAVNASFFLKQKLGGRARLRLQNSNPEPLVVILASDSNRSGAKALALGRHLCQTGHIRVITLFTCSQNELQDSMVKKQTDIYKKCGGKIVNSVSSLESAMETLNSPVEIVIDAMQGYDCTLSDLAGTSEVIESRIKSMISWCNKQRGSTKVWSLDIPNGFDAGSGMPDIFFSDRIEATGIICSGWPLIAINNLIANLPSLEDAVLIDIGIPQGAYSQRTSLRKFQNCDLFVTDGSLLLDL
 | binds | Dcp2, P53550 1-970 (protein) MSLPLRHALENVTSVDRILEDLLVRFIINCPNEDLSSVERELFHFEEASWFYTDFIKLMNPTLPSLKIKSFAQLIIKLCPLVWKWDIRVDEALQQFSKYKKSIPVRGAAIFNENLSKILLVQGTESDSWSFPRGKISKDENDIDCCIREVKEEIGFDLTDYIDDNQFIERNIQGKNYKIFLISGVSEVFNFKPQVRNEIDKIEWFDFKKISKTMYKSNIKYYLINSMMRPLSMWLRHQRQIKNEDQLKSYAEEQLKLLLGITKEEQIDPGRELLNMLHTAVQANSNNNAVSNGQVPSSQELQHLKEQSGEHNQQKDQQSSFSSQQQPSIFPSLSEPFANNKNVIPPTMPMANVFMSNPQLFATMNGQPFAPFPFMLPLTNNSNSANPIPTPVPPNFNAPPNPMAFGVPNMHNLSGPAVSQPFSLPPAPLPRDSGYSSSSPGQLLDILNSKKPDSNVQSSKKPKLKILQRGTDLNSIKQNNNDETAHSNSQALLDLLKKPTSSQKIHASKPDTSFLPNDSVSGIQDAEYEDFESSSDEEVETARDERNSLNVDIGVNVMPSEKDSRRSQKEKPRNDASKTNLNASAESNSVEWGPGKSSPSTQSKQNSSVGMQNKYRQEIHIGDSDAYEVFESSSDEEDGKKLEELEQTQDNSKLISQDILKENNFQDGEVPHRDMPTESNKSINETVGLSSTTNTVKKVPKVKILKRGETFASLANDKKAFDSSSNVSSSKDLLQMLRNPISSTVSSNQQSPKSQHLSGDEEIMMMLKRNSVSKPQNSEENASTSSINDANASELLGMLKQKEKDITAPKQPYNVDSYSQKNSAKGLLNILKKNDSTGYPRTEGGPSSEMSTSMKRNDATNNQELDKNSTELLNYLKPKPLNDGYENISNKDSSHELLNILHGNKNSSAFNNNVYATDGYSLASDNNENSSNKLLNMLQNRSSAINEPNFDVRSNGTSGSNELLSILHRK
